For this test, the target named is T1, chicken peroxiredoxin 1 (chPRDX1) (chicken) (UniProt P0CB50).
T1 sequence: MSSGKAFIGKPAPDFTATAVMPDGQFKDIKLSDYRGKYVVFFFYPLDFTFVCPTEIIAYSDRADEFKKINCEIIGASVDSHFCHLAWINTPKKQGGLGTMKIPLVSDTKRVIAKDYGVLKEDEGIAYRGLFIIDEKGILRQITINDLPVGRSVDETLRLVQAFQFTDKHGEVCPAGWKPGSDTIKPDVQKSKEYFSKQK
In words: co-IP; DF-1 lysate in IP lysis buffer; PRDX1 specific antibody on immunomagnetic beads; pcDNA3.1(+) empty vector as control.

Results are given in words; binding and its absence hold for the method and conditions named. In cells and extracts the contact can be indirect. Binding calls can cover weak binding; strength is not graded here.

For the substance “chicken interferon-related antiviral protein (chIRAP)”, the binding result was “binds”.

For the origin of these results see PMC12431653.
